Experimental data as given in PubChem BioAssay AID652054 (National Center for Advancing Translational Sciences (NCATS), 2013).
Out of some 360,000 compounds screened, about 9,100 (2.5%) were called active. This list was built around the results that the source calls inconclusive (neither active nor inactive); the mix of calls is not that of the screen. Rule as the data show it: active = max response below about -50%; inconclusive = no clear call, values can overlap the other calls; inactive = above that.

Amino acid sequences for entries named in this document (tags omitted).
UniProt P35462, whole entry, looked up: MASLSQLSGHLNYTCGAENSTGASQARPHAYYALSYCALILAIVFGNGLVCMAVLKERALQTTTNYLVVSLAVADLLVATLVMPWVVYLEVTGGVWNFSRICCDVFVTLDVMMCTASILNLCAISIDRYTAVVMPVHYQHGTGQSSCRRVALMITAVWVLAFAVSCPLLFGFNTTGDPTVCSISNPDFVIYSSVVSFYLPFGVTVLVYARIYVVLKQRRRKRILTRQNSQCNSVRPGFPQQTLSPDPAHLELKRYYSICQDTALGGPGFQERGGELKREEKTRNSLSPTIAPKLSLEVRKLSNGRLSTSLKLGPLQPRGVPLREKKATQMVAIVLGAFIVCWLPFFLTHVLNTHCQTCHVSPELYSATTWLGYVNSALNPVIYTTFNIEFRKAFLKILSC

These compounds were tested against D(3) dopamine receptor (Homo sapiens) (UniProt P35462) (assay: qHTS of D3 Dopamine Receptor Antagonist: qHTS). Details: D3R cells, DiscoveRx beta-arrestin luminescence, antagonist mode; stronger effect = lower value.
Outline: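 Cells expressing the human receptor were seeded at 1500 cells/well, incubated overnight at 37 degrees C in 5% CO2, then exposed to library compounds with dopamine controls for 90 minutes at 37 degrees C before luminescent detection.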
% is scaled to controls: 0 for no effect and ±100 for the full control effect.

Compound | max response, negative = inhibition
O=C1C=C(c2ccc3ncccc3c2)C[C@@H](c2ccc3c(c2)OCO3)C1 | inconclusive: -43.6%
O=C(NCCOc1ccccc1)[C@@H]1CCCN1C(=O)c1cccs1 | inactive: -4.03%
O=C(Nc1cccc(C(F)(F)F)c1)c1cc(S(=O)(=O)N2CCCCC2)ccc1N1CCOCC1 | inactive: 40%
Cc1ccc(C(C)C)c(OCC(=O)NS(=O)(=O)c2ccc(Cl)cc2)c1 | inconclusive: -41.2%
Cc1ccc(S(=O)(=O)NC(=O)c2ccc(Br)o2)c(C)c1 | inconclusive: -30.9%
C#CCOCCOCCOCCNc1nc(N2CCN(C(=O)CCCCCCCCCCNC(=O)[C@H](CCCCN)n3cc(C)nn3)CC2)nc(N2CCN(C(=O)CCCCCCCCCCNC(=O)[C@H](CCCN=C(N)N)n3cc(C[C@@H](C)CC)nn3)CC2)n1 | inconclusive: -34.1%
CSc1cccc(NC(=S)N(CCN(C)C)C(C)c2ccccn2)c1 (stereo unspecified) | inconclusive: -31.6%
NC(c1csc(NC(=O)Nc2ccccc2Oc2ccccc2)n1)c1ccccc1Cl (stereo unspecified) | inactive: 46.2%
O=c1c2ccccc2sn1-c1cccc(Cl)c1 | inconclusive: -38.2%
CCCCCOc1ccc(C(=O)C(c2ccccc2)N2CCOCC2)cc1 (stereo unspecified) | inconclusive: -39.3%
O=C(COC(=O)c1ccccc1)c1ccc2c(c1)OCCO2 | inactive: -5.24%
COCCN(C(=O)CSc1nnc(-c2ccccc2F)n1N)c1c(N)n(Cc2ccccc2)c(=O)[nH]c1=O | inconclusive: -30.8%
CC(NCCCSc1ccccc1)C(O)c1ccc(O)cc1 (stereo unspecified) | active: -61.6%
O=C(NCc1ccccc1)c1ccc(N2CCC3(CC2)CC(c2ccc(Cl)cc2)=NO3)c([N+](=O)[O-])c1 | active: -63.3%
O=C(COc1ccccc1Br)N1CCN(c2ccccc2)CC1 | inconclusive: -32.1%
O=c1[nH]c(=S)[nH]c2c1C(C1CCCCC1)OC(C1CCCCC1)C2 (stereo unspecified) | inconclusive: -33.1%
COc1ccc(NC(=O)CSc2nc(C3CC3)nc3ccccc23)c(OC)c1 | inactive: 0.656%
O=C1C(Cl)=C(Nc2ccccc2)C(=O)c2ccccc21 | active: -73.9%
CC1CCCCC1NC(=O)CCS(=O)(=O)c1ccc(Cl)cc1 (stereo unspecified) | inactive: 10.3%
COc1ccccc1C1CCN(Cc2cccc3ccccc23)CC1 | inactive: -10.1%
COc1ccc(CN(C(=O)CSc2nnc(-c3ccc(F)cc3)o2)c2ccc(F)cc2)cc1 | inactive: 24%
Cc1nn2c(-n3ccnc3)c3c(nc2c1-c1ccccc1)CCC3 | inconclusive: -30.3%

Compound | max response, negative = inhibition
CCn1c(SCc2cccc(C(=O)O)c2)nnc1-c1ccccc1 | inconclusive: -41%
CSc1ccc(CNC(=O)C2(C)CCCN(C(C)C)C2)cc1 (stereo unspecified) | inactive: -18.8%
COc1ccc(C(C)NC(=O)C2CCCC2)cc1 (stereo unspecified) | inconclusive: -30.2%
COc1ccccc1/C=C/C(=O)/C=C/c1ccccc1O | inactive: -27.2%
Cc1cccc(N2C(=O)N3[C@H](c4ccc(F)cc4)[C@@H]4C(=O)N(C5CCCCC5)C(=O)[C@@H]4[C@]3(Cc3ccccc3)C2=O)c1 | active: -58.6%
O=c1/c(=C/c2ccco2)sc2n1CN(c1ccccc1)CN=2 | inactive: -16.8%
c1ccc(Nc2nc3ccccc3[nH]2)nc1 | inconclusive: -33.2%
O=C(CCc1ccccc1)Nc1ccnn1C1CCN(C/C=C/c2ccccc2)CC1 | inconclusive: -43.8%
CCn1nc(C)cc1C(=O)N1CCCC(C(=O)c2ccc3ccccc3c2)C1 (stereo unspecified) | inconclusive: -36.5%
Cc1nn(-c2ccccc2)c2c1P(=O)(O)/C(=C1\N(C)c3ccccc3C1(C)C)C=N2 | inconclusive: -42.1%
C#CCOCCOCCOCCNc1nc(N2CCN(C(=O)CCCCCCCCCCNC(=O)[C@H]([C@@H](C)CC)n3cc(CCCCN=C(N)N)nn3)CC2)nc(N2CCN(C(=O)CCCCCCCCCCNC(=O)[C@H](CCCCN)n3cc(C)nn3)CC2)n1 | inconclusive: -34.7%
CC(NC(=O)c1c(O)c2ccccc2[nH]c1=O)c1ccccc1 (stereo unspecified) | inactive: 1.11%
CC(c1nnc(SCC(=O)N2CCc3ccccc32)n1-c1ccc(Cl)cc1)N(C)C (stereo unspecified) | inconclusive: -36.4%
COc1ccc(N2CCN(C(=O)c3cn(CC4CCCCC4)nn3)CC2)cc1 | inactive: 4.73%
O=C(COC(=O)c1ccc([N+](=O)[O-])o1)NCCCc1ccccc1 | active: -51.4%
CN(C)c1cccc2c1C(=O)c1ccccc1C2=O | inactive: -20.7%
CCCCN1C[C@H](Cc2ccccc2)[C@@H](CC(=O)Nc2ccccc2)C1=O | inactive: -2.9%
COc1ccc(C)cc1NC(=O)C(C)N(c1ccc(C)cc1)S(C)(=O)=O (stereo unspecified) | inactive: 7.56%
O=C(COC(=O)CCN=C1NS(=O)(=O)c2ccccc21)NNC(=O)c1ccc(Cl)cc1 | inconclusive: -46.1%
C#CCCOC(=O)N1C2=NC(C(=O)OC)=C(C(=O)OC)[C@@H]3N(C)c4ccc(OC)cc4[C@]23C[C@H]1C(=O)OC | inconclusive: -33.5%
ClC(CCN1CCN(Cc2ccccc2)CC1)c1ccccc1 (stereo unspecified) | active: -64%
O=C(O)c1cccc2c1/C(=N/Nc1ccc([N+](=O)[O-])cc1[N+](=O)[O-])c1ccccc1-2 | active: -53.9%

Another view of some results above:
O=C1C(Cl)=C(Nc2ccccc2)C(=O)c2ccccc21
  max response, negative = inhibition: active: -73.9%
C#CCOCCOCCOCCNc1nc(N2CCN(C(=O)CCCCCCCCCCNC(=O)[C@H]([C@@H](C)CC)n3cc(CCCCN=C(N)N)nn3)CC2)nc(N2CCN(C(=O)CCCCCCCCCCNC(=O)[C@H](CCCCN)n3cc(C)nn3)CC2)n1
  max response, negative = inhibition: inconclusive: -34.7%

(further entries)

Compound | max response, negative = inhibition
CCCCNS(=O)(=O)c1ccc(OC)c(Cl)c1Cl | inconclusive: -34.7%
CCN1C(=O)/C(=C\N2CCCCCC2)SC1=S | inactive: 1.61%
COc1ccc(Cl)cc1Cn1c(C)c(C(=O)NCc2cccc([N+](=O)[O-])c2)sc1=O | inconclusive: -45.5%
Cc1ccc(P(=O)(c2ccc(C)cc2)[C@@H](NC(c2ccccc2)c2ccccc2)c2ccccc2)cc1 | active: -109%
CN(CCOc1ccccc1)Cc1ccccc1 | active: -117%
COc1cccc(C(=O)NCC[N+](C)(C)C)c1 | inconclusive: -45.6%
NC1=NC[C@@H](Cc2ccc(O)cc2)N1CC1CCCCC1 | inconclusive: -36.4%
O=C(c1ccccc1)N(C1=NCCCCS1)c1ccccc1 | inactive: -3.36%
CC1CCCCC1NC(=S)NC(=O)c1ccccc1Cl (stereo unspecified) | inconclusive: -39.7%
CCOc1ccccc1-c1nc(CN2CCN(C(=O)c3ccco3)CC2)c(C)o1 | inconclusive: -43%
CCC(C)NCCOCCOc1ccc(Cl)cc1Br (stereo unspecified) | active: -82.8%
O=C(/C=C/c1cccc(Cl)c1)N1CCC(Cc2ccccc2)CC1 | inactive: 14.7%
COc1ccc(Cl)cc1-c1cc(C(=O)N[C@H](C)c2ccccc2)[nH]n1 | inconclusive: -40.8%
Cc1cccc(NC(=O)c2ccc([N+](=O)[O-])o2)c1 | inconclusive: -32%
COCCCNC(=O)CCn1c(=O)c2ccccc2n(CC(=O)Nc2ccc(C)cc2C)c1=O | inconclusive: -30.6%
COc1ccc(N/C(C)=C2/C(=O)C(=O)N(CCO)C2c2ccc(Br)cc2)cc1 (stereo unspecified) | inconclusive: -31.2%
Cc1ccc(C(C)(C)C)c(OCCOCCN2CCCC2)c1 | active: -53.9%
CN(C)S(=O)(=O)Nc1ccccn1 | inconclusive: -33.3%
COCCNc1nc(-c2ccccc2CO)c2sc(-c3ccccc3)cc2n1 | inconclusive: -33.8%
CC(C)c1ccccc1NC(=O)CNCCOc1ccccc1F | inconclusive: -41.9%
COCCOC1CCN(C(=O)c2cc(COc3ccc(-n4cncn4)cc3)on2)CC1 | inactive: -10%
CCNC(=O)NC(=O)CSc1nc2ccccc2n1CCOC | inactive: 14.9%

Compound | max response, negative = inhibition
Cn1cccc1-c1cc(C(=O)N/N=C/c2ccc(Cl)cc2)[nH]n1 | inconclusive: -31%
N#C/C(=C\c1ccc(Cl)cc1)C(=O)Nc1cccnc1 | inconclusive: -31.6%
CCOc1ccc(NC(=O)CCN2CCN(S(=O)(=O)c3cc(Cl)ccc3OC)CC2)cc1 | inactive: -7.11%
CCCCOc1ccc(C(=O)N/C(=C\c2ccc([N+](=O)[O-])cc2)C(=O)OCc2ccco2)cc1 | inconclusive: -33.7%
O=C(c1ccccc1)c1cc([N+](=O)[O-])ccc1N1CCOCC1 | inconclusive: -33.3%
O=[N+]([O-])c1ccccc1/C=N/N1CCN(c2ccc(Cl)cc2)CC1 | inactive: 2.11%
CCOc1ncccc1C(=O)OCc1ccc(C(=O)OC)cc1 | inactive: -5.97%
COc1ccc(NC2=Nc3ccccc3CC2)cc1 | active: -55.6%
CC(C)(C)c1ccccc1OCCOCCNCc1ccccc1 | active: -77.7%
COc1ccc(CNC(=O)C(c2ccc(C)o2)N(Cc2cccs2)C(=O)Cc2cccs2)cc1 (stereo unspecified) | active: -56.7%
CCN(CC)CCNC(CC(=O)Nc1ccc(Cl)cc1Cl)C(=O)O (stereo unspecified) | inconclusive: -38.1%
O=C(NCCCN1CCOCC1)c1cn(-c2ccccc2)nc1-c1ccc(Br)cc1 | inconclusive: -38.1%
O=C(O)c1ccc(-n2c(-c3cc(C4CC4)[nH]n3)n[nH]c2=S)cc1 | inconclusive: -31.3%
CC1=C(C(N)=O)C(c2ccc(Cl)cc2)NC(=O)N1 (stereo unspecified) | inconclusive: -38.9%
CC(C)c1ccc(O)c(NC(=S)NC(=O)c2cccnc2)c1 | inconclusive: -35.1%
COc1cccc(OCC(=O)NC2CCCCC2)c1 | inconclusive: -49.1%
Cn1c(=O)c2c(ncn2CC(=O)N2CCN(S(=O)(=O)c3ccccc3)CC2)n(C)c1=O | inconclusive: -31.9%
CC(C)C1C(C#N)=C(N)Oc2n[nH]c(-c3ccccc3)c21 (stereo unspecified) | inconclusive: -37.9%
CCOC(=O)C1=C(O)/C(=C/c2ccc(OCC(=O)O)c(OCC)c2)SC1=Nc1ccc(C)cc1 | inconclusive: -32%
c1ccc2c(c1)nc1n2CCN1CCN1CCCC1 | active: -112%

Part of the list above, as labelled records:
O=c1[nH]c(=S)[nH]c2c1C(C1CCCCC1)OC(C1CCCCC1)C2 (stereo unspecified)
  max response, negative = inhibition: inconclusive: -33.1%
CC(c1nnc(SCC(=O)N2CCc3ccccc32)n1-c1ccc(Cl)cc1)N(C)C (stereo unspecified)
  max response, negative = inhibition: inconclusive: -36.4%
COCCOC1CCN(C(=O)c2cc(COc3ccc(-n4cncn4)cc3)on2)CC1
  max response, negative = inhibition: inactive: -10%
